The text below walks through data of patent US20190330638A1.

Chains of the proteins cited; added tags and fusions are not shown. Lines headed by an entry give the natural chain unless they say otherwise; changes in a name come on top. Residues count along the entry.
UniProt P49959: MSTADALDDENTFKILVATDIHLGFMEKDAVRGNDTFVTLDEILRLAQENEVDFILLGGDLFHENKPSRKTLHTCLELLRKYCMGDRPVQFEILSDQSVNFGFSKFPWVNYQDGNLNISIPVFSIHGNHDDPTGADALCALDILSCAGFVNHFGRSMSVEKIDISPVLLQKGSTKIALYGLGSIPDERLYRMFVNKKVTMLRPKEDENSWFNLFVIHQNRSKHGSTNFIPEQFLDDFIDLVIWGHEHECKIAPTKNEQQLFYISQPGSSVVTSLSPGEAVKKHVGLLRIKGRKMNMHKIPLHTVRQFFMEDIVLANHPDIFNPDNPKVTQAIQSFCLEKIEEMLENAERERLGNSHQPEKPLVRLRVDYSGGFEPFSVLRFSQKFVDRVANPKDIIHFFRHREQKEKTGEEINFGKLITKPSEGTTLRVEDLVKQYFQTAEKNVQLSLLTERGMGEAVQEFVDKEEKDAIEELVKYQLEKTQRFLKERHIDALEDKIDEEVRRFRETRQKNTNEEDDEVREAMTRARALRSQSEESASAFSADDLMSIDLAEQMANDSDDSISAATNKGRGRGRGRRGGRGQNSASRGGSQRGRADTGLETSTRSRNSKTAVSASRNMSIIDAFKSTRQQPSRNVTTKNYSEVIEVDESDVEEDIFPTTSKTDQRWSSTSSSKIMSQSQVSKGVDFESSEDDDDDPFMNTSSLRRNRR
UniProt P45973: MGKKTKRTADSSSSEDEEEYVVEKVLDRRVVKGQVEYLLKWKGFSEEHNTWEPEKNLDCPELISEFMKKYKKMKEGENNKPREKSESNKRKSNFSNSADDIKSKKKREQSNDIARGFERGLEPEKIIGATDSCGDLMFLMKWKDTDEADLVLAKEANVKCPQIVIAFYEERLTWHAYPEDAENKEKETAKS
UniProt O94874, residues 2-794: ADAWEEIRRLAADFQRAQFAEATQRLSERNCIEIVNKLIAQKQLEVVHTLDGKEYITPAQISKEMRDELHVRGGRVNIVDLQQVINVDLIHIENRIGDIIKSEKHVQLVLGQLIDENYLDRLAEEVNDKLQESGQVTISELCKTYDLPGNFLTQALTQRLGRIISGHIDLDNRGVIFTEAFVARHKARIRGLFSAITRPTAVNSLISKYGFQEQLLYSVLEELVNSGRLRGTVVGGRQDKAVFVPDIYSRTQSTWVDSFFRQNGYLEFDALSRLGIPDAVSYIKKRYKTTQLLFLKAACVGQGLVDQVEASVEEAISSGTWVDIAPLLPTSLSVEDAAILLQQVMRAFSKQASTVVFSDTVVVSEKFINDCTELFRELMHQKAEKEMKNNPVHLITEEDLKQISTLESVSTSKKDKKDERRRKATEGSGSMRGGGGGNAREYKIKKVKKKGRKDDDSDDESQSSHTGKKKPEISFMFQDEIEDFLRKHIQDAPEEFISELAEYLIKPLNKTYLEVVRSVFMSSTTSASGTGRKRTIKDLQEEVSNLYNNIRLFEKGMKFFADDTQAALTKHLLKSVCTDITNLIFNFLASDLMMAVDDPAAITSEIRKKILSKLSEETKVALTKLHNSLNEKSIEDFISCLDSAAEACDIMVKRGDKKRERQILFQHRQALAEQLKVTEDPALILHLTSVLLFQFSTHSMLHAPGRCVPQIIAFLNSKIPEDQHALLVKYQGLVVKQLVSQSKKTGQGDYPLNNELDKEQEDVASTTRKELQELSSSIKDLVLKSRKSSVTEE
UniProt Q15208, residues 2-465: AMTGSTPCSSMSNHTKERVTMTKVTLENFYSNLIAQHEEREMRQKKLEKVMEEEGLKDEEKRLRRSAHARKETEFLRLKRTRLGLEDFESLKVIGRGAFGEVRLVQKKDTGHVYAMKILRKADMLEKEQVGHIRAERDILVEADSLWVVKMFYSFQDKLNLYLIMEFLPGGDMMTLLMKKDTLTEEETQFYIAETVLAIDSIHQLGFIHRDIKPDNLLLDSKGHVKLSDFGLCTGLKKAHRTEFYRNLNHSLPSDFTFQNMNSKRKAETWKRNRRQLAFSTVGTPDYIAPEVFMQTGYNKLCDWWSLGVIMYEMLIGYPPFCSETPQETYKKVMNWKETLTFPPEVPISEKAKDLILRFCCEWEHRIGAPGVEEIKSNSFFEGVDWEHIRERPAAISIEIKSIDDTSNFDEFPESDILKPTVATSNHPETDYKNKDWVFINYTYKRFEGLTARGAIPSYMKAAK

In experiment [1] the target is Mre11-Rad50-Nbs1 (MRN) complex (UniProt P49959). The experiment in a line: co-immunoprecipitation in U2OS cells with or without IR (10 Gy).
Experiment [2] has as its target HP1 (UniProt P45973). The experiment in a line: co-immunoprecipitation in U2OS cells.
The target of experiment [3] is HP1 (UniProt P45973). The experiment in a line: immunoprecipitation with STK38 antibody, U2OS cells.

Results are given in words; binding and its absence hold for the method and conditions named. For part of these data: In cells and extracts the contact can be indirect. Some results given as binding are weak or reduced against the parent protein; the word gives no strength.

As for “UFM1 specific ligase 1 (UFL1) (from UniProt O94874 2-794) (enzyme)”, the binding result in experiment [1] is on record as “binds”. Consider “serine/threonine kinase 38 (STK38) (from UniProt Q15208 2-465) (enzyme)”, for which the binding result in experiment [2] and in experiment [3] was “binds” each time.
